# Reference: PubChem BioAssay AID651703 (Broad Institute, 2012)
# About 970 (81%) of roughly 1,200 compounds were called active. No rule for the calls is given here. So high a share suggests a set chosen from earlier hits. This is a selection; strong and weak results do not stand in their true shares. Measured potencies and affinities stand elsewhere.
# Biological target: Transforming acidic coiled-coil-containing protein 3 (Homo sapiens) (UniProt Q9Y6A5)
# Assay: inhibition of ARNT PAS-B/TACC3 complex formation – biochemical, AlphaScreen, cherry-picked samples, confirmation (AID 651703);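 also: TACC3 partner is the GST-tagged E629A mutant dimer; hits lower the signal meaning they disrupt ARNT binding to TACC3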
# Settings: AlphaScreen His-ARNT PAS-B / GST-TACC3 binding, luminescence; at 68 µM (top of the series)
row,Structure (SMILES),"activity change, negative = inhibition"
1,COc1ccc(Cc2c(O)[nH]c(=O)[nH]c2=O)c(OC)c1,inactive: 2.29%
2,CCOC(=O)c1cc2c(cn1)[C@H](CCO)NC2,inactive: -19.2%
3,CC1CN(c2ccc([N+](=O)[O-])c3cccnc23)CC(C)N1 (centres undefined),inactive: -9.11%
4,CCCCOCCCn1c(N)c(C(=O)OCCOC)c2nc3ccccc3nc21,inactive: -3.71%
5,Clc1cccc(CNCCc2c[nH]c3ccccc23)c1,inactive: -28.2%
6,CCOC(=O)c1cc2c(cn1)[C@@H](CCO)NC2,inactive: -12.3%
7,COc1ccc(-c2cc(=NCCC(=O)O)c3cc(C)ccc3o2)cc1,inactive: -30.8%
8,O=c1[nH]c(O)c(Cc2ccc3c(c2)OCO3)c(=O)[nH]1,inactive: 3.74%
9,COCCOC(=O)c1c(N)n(Cc2ccco2)c2nc3ccccc3nc12,inactive: -27.2%
